PubChem BioAssay AID1259308, NCATS | 2017
Screen: 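Knock-downs that increase output of a recombinant reporter protein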 (primary screen). System: human HEK293 embryonic kidney cells stably expressing firefly luciferase (HEK-CMV-Luc2-Hygro). Reagent: single siRNA against human genes, 0.8 pmol siRNA per well. Timing: 72 h. Read-out: 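Reporter luminescence and viable-cell signal on separate replicate plates, given as percent of non-targeting control and median/MAD z-scores, plus per-cell luciferase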. Direction: total luciferase, z-score and total luciferase, % of control: higher = more reporter protein produced. Rule for the call: 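Active when the median/MAD z-score for overall luciferase is greater than 3; a gene was taken forward for validation with new siRNAs if at least two of its three siRNAs passed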. Meaning of the calls: active = raised luciferase; inactive = no rise.
This is a random part of about 59,000 reagents tested. About 1,510 of them (2.6%) were called active. 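Calls use total luciferase alone and ignore viability, so some active siRNAs may act by altering cell number.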 Unmarked entries are inactive. The numbers tell different reagents against one gene apart. Further read-outs or replicates are left out here. No sequences are given here.

Against TRIP6 (GeneID 7205) #1 the deposit lists total luciferase, z-score 4.34 (active); total luciferase, % of control 168.
Depletion of TRIP6 (GeneID 7205) #2 came out at: total luciferase, z-score 0.788; total luciferase, % of control 97.6.
Depletion of TRIP6 (GeneID 7205) #3 gave: total luciferase, z-score -1.02; total luciferase, % of control 61.6.
Against XRCC1 (GeneID 7515) #1 the deposit lists total luciferase, z-score -0.477; total luciferase, % of control 72.4.
Depletion of XRCC1 (GeneID 7515) #2 resulted in: total luciferase, z-score 0.816; total luciferase, % of control 98.1.
Against XRCC1 (GeneID 7515) #3 the deposit lists total luciferase, z-score 0.314; total luciferase, % of control 88.1.
For NRSN2 (GeneID 80023) #1, the values are total luciferase, z-score -0.691; total luciferase, % of control 68.1.
Knock-down of NRSN2 (GeneID 80023) #2 resulted in: total luciferase, z-score 2.28; total luciferase, % of control 127.
After knock-down of NRSN2 (GeneID 80023) #3, the screen gave total luciferase, z-score 1.45; total luciferase, % of control 111.

2 entries from above, arranged by “total luciferase, % of control”, descending:
XRCC1 (GeneID 7515) #2 | total luciferase, z-score = 0.816; total luciferase, % of control = 98.1
XRCC1 (GeneID 7515) #1 | total luciferase, z-score = -0.477; total luciferase, % of control = 72.4

More results follow:
For SPAG4 (GeneID 6676) #1 the deposit lists total luciferase, z-score -0.313; total luciferase, % of control 75.7.
SPAG4 (GeneID 6676) #2 gave total luciferase, z-score -0.368; total luciferase, % of control 74.6.
With knock-down of SPAG4 (GeneID 6676) #3, the screen gave total luciferase, z-score 1.2; total luciferase, % of control 106.
With knock-down of PKP2 (GeneID 5318) #1, the record shows total luciferase, z-score -0.41; total luciferase, % of control 73.7.
After knock-down of PKP2 (GeneID 5318) #2, the record shows total luciferase, z-score 0.787; total luciferase, % of control 97.5.
After knock-down of PKP2 (GeneID 5318) #3 the results were total luciferase, z-score 0.365; total luciferase, % of control 89.1.
Knock-down of SLC5A11 (GeneID 115584) #1 resulted in: total luciferase, z-score 1.94; total luciferase, % of control 120.
Depletion of SLC5A11 (GeneID 115584) #2 resulted in: total luciferase, z-score -0.951; total luciferase, % of control 63.
With knock-down of SLC5A11 (GeneID 115584) #3 the results were total luciferase, z-score -0.227; total luciferase, % of control 77.4.
Silencing of ZIM2 (GeneID 23619) #1 resulted in: total luciferase, z-score 0.216; total luciferase, % of control 86.2.
For ZIM2 (GeneID 23619) #2, the entry reads total luciferase, z-score 0.188; total luciferase, % of control 85.6.
ZIM2 (GeneID 23619) #3 showed total luciferase, z-score -1.77; total luciferase, % of control 46.8.
